Test results published in article doi:10.1101/2024.10.14.618141.
These are yes or no findings as the source states them, for the method shown. Some binding calls cover weakened binding; strength is not graded here.

By UniProt entry, the sequences of proteins in these tests, tags left out. Where a name states a change or a piece, a line headed by the entry shows the natural chain unless it says otherwise. Chains listed by the source or under a name are the forms on record and can include a tag or linker. Residues count along the entry.
UniProt Q9NYV4: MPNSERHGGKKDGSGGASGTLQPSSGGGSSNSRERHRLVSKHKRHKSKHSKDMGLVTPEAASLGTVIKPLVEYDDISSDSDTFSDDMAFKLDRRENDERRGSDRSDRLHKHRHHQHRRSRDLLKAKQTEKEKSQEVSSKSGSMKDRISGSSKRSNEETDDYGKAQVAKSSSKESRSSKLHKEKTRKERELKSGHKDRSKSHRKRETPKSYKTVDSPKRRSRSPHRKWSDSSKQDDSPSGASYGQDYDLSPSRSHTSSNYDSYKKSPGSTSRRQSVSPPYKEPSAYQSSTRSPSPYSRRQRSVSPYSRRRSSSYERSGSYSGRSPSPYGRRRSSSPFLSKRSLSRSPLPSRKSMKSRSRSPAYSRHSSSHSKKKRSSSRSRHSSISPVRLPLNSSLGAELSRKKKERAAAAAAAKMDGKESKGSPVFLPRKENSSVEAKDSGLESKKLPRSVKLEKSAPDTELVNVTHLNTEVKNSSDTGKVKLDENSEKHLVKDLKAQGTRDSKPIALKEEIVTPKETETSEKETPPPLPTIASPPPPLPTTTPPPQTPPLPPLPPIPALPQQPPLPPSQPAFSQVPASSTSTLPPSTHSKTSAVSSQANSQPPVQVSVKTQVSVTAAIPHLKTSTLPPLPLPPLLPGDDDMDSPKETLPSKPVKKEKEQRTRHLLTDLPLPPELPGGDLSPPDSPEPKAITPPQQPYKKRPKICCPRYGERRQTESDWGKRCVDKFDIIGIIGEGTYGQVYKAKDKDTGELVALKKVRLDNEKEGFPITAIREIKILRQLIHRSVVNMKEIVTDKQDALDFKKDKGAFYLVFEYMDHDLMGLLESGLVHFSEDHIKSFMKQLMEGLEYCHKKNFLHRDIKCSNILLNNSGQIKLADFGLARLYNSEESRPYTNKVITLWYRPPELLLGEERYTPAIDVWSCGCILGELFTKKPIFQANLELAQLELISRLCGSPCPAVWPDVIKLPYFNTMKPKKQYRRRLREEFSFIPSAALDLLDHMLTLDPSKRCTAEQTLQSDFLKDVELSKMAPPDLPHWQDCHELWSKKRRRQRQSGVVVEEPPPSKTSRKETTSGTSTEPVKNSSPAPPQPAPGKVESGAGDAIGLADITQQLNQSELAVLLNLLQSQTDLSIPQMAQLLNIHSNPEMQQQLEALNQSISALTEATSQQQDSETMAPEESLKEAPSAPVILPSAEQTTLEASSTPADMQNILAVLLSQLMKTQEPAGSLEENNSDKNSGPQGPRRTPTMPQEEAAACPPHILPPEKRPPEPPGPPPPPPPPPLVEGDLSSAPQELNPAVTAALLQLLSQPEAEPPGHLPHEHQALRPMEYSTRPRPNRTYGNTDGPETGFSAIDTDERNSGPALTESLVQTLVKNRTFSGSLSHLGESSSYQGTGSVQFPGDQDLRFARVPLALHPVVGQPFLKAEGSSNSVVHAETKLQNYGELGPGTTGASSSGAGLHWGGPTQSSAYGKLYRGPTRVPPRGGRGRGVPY
Flag(N)-CDK12ΔCTD (1-1082): residues 1-1082 of Q9NYV4
Flag(N)-CDK12ΔNTD (700-1490): residues 700-1490 of Q9NYV4
Flag(N)-CDK12-KiD (700-1082): residues 700-1082 of Q9NYV4
Flag(N)-CDK12ΔRS (Δ104-380) (Q9NYV4, form named): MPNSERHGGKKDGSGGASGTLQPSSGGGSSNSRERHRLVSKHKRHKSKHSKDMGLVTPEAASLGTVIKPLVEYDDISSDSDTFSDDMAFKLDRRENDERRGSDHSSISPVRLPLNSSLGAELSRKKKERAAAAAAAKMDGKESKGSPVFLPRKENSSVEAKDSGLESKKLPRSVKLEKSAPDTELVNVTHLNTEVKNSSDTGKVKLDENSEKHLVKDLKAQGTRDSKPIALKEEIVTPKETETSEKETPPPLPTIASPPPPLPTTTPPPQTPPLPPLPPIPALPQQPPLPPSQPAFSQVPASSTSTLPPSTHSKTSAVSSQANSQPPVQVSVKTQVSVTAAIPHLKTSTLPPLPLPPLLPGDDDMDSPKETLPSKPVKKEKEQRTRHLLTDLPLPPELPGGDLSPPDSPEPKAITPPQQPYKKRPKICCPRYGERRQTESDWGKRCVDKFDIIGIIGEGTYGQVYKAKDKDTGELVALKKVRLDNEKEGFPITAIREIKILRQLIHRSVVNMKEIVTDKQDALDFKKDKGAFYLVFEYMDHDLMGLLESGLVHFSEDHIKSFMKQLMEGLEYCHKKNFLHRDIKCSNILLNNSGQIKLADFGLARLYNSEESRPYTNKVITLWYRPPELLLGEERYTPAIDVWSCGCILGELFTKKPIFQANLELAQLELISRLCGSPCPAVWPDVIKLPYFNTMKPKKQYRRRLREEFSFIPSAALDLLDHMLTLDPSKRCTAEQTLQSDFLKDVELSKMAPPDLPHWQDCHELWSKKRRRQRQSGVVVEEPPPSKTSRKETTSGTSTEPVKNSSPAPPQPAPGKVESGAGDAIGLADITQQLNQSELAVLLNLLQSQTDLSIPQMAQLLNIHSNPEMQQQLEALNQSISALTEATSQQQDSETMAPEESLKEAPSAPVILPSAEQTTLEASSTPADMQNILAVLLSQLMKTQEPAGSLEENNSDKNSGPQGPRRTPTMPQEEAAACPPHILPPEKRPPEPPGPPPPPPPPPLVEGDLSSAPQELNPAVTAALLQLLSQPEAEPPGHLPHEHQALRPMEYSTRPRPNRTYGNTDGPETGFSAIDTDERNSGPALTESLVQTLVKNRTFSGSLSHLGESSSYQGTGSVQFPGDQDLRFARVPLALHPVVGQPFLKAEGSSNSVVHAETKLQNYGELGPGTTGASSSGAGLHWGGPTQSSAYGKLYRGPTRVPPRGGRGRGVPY
UniProt Q14004: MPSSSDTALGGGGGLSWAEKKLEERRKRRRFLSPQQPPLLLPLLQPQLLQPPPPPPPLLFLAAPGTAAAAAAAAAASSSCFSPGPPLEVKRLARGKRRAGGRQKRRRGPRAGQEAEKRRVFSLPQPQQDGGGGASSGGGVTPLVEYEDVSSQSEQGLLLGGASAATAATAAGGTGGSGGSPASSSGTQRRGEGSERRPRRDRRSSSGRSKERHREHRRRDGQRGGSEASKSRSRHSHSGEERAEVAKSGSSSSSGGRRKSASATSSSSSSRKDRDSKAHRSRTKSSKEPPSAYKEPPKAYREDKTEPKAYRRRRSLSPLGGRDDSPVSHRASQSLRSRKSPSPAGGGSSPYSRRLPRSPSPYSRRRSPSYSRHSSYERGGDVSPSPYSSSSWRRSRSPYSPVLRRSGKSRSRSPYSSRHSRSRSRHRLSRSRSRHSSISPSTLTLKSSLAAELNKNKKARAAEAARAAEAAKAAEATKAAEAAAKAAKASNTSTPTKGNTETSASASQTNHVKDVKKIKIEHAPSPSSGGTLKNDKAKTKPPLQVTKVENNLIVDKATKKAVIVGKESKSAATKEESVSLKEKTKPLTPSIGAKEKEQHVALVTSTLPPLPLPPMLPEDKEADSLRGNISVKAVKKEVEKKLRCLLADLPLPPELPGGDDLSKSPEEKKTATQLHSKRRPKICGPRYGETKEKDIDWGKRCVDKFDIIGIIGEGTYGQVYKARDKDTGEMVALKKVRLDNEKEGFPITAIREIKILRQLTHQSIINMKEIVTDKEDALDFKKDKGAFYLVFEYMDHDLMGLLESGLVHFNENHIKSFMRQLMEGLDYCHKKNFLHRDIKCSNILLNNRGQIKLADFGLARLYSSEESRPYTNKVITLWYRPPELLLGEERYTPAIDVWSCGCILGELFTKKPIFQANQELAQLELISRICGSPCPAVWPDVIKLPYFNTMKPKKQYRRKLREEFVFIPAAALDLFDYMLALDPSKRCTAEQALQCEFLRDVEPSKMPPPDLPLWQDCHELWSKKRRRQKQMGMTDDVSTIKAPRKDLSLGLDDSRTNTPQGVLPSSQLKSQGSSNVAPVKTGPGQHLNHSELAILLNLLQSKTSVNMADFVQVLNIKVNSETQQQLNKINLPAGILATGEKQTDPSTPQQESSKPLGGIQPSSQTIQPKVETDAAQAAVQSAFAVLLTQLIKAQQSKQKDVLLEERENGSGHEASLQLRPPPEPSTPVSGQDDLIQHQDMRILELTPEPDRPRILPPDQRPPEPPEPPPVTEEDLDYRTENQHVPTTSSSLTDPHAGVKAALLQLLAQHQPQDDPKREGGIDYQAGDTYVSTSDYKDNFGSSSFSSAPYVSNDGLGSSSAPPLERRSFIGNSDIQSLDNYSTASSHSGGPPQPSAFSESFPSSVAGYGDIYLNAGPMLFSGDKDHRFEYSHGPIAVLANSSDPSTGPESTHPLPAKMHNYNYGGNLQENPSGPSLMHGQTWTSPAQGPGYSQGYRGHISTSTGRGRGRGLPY
UniProt O75909: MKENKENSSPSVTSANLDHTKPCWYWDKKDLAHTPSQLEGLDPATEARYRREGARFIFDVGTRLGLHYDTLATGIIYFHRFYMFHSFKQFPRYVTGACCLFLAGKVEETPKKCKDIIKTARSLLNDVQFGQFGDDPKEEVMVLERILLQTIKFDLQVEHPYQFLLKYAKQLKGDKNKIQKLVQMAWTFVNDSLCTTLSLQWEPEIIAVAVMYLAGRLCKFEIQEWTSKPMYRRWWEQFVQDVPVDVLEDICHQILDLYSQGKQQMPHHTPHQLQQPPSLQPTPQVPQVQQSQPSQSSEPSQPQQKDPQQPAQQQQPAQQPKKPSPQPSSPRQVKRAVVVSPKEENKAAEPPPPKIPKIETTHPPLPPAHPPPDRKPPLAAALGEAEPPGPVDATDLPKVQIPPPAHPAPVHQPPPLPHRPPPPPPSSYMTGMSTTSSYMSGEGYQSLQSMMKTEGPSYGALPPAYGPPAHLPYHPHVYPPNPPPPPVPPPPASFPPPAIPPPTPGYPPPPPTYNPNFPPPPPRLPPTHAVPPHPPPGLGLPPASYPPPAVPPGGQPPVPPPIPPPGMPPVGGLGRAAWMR

Tests used:
Experiment in all cases: co-purification of co-expressed proteins
[1] = target: Flag(N)-CDK12ΔRS (Δ104-380) (human) (UniProt Q9NYV4)
[2] = target: Flag(N)-CDK13, full length (human) (UniProt Q14004)
[3] = target: Flag(N)-CDK12, full length (human) (UniProt Q9NYV4)
[4] = target: Flag(N)-CDK12ΔCTD (1-1082) (human) (UniProt Q9NYV4)
[5] = target: Flag(N)-CDK12ΔNTD (700-1490) (human) (UniProt Q9NYV4)
[6] = target: Flag(N)-CDK12-KiD (700-1082) (human) (UniProt Q9NYV4)

Measured: binding

Cyclin K (from UniProt O75909 1-580)
binds: all assays above
